According to PMC9763448:

Legend:
Test in all cases: two-hybrid; yeast two-hybrid; baits in pGBKT7, preys in pGADT7; baits tested for autoactivation and toxicity; growth at four levels of initial concentration; screening in triplicate
[1] = biological target: T1, PmDAM5 (Prunus mume) (UniProt G1UE18)
T1 sequence: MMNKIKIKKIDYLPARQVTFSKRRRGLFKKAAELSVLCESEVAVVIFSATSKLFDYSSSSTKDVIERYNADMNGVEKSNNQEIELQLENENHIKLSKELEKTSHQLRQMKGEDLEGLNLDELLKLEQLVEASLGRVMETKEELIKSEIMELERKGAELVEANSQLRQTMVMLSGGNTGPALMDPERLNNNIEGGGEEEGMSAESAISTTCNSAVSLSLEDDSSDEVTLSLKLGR

[2] = biological target: T2, PmDAM1 (Prunus mume) (UniProt G1UE19)
T2 sequence: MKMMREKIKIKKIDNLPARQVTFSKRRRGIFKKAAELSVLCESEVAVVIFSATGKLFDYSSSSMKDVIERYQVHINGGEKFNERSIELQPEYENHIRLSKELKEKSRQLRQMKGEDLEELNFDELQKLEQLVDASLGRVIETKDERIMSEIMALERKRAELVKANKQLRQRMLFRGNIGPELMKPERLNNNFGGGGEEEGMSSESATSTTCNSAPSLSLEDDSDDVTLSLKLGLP

[3] = biological target: PmSVP1 (Prunus mume)

| Molecule | binding [1] | binding [2] | binding [3] |
| --- | --- | --- | --- |
| PmSVP1 (Prunus mume) | binds weakly | binds |  |
| PmSVP2 (Prunus mume) | binds | binds |  |
| PmDAM1 (protein, UniProt G1UE19 1-235) MKMMREKIKIKKIDNLPARQVTFSKRRRGIFKKAAELSVLCESEVAVVIFSATGKLFDYSSSSMKDVIERYQVHINGGEKFNERSIELQPEYENHIRLSKELKEKSRQLRQMKGEDLEELNFDELQKLEQLVDASLGRVIETKDERIMSEIMALERKRAELVKANKQLRQRMLFRGNIGPELMKPERLNNNFGGGGEEEGMSSESATSTTCNSAPSLSLEDDSDDVTLSLKLGLP |  |  | binds |
| PmDAM5 (protein, UniProt G1UE18 1-234) MMNKIKIKKIDYLPARQVTFSKRRRGLFKKAAELSVLCESEVAVVIFSATSKLFDYSSSSTKDVIERYNADMNGVEKSNNQEIELQLENENHIKLSKELEKTSHQLRQMKGEDLEGLNLDELLKLEQLVEASLGRVMETKEELIKSEIMELERKGAELVEANSQLRQTMVMLSGGNTGPALMDPERLNNNIEGGGEEEGMSAESAISTTCNSAVSLSLEDDSSDEVTLSLKLGR |  |  | binds |

No constants are given. Whether binding was seen depends on the method and setting. Binding calls can cover weak binding; strength is not graded here.
